Measurements: patent publication US20220064274A1 (SHANGHAI YILE BIOTECHNOLOGY, published 2022)
Results are given in words; binding and its absence hold for the method and conditions named. Some binding calls cover weakened binding; strength is not graded here. Blank lines part the entries; values can stand above or below the binder they belong to.

Columns and labels:
[1] = biological target: T1, human proBDNF precursor protein (human, UniProt P23560 19-247); experiment: single phage ELISA
T1 construct: also called human proBDNF precursor recombinant protein
T1 sequence (looked up): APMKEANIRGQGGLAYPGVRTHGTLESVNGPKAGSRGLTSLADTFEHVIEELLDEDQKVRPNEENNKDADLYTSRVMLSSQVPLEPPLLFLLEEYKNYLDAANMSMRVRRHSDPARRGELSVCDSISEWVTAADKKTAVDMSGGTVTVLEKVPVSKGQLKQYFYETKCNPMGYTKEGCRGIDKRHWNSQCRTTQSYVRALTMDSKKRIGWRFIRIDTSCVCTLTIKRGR

[2] = biological target: T1, human proBDNF precursor protein; experiment: ELISA on denatured human proBDNF

- binding [1]: binds
B1: single chain antibody 2H8 (scFv)
scFv: EVQLVETGGGLVQPGGSLRLSCAASGFTFSSYGMHWVRQAPGKGLEWVSVISGSGDSTYYAESVKGRFTISRDNARNTVYLQMNSLRAEDTAVYYCASGILTGYVFDYWGKGTMVTVSSGGGGSGGGGSGGGGSDVVMTQSPLSLPVTLGQPASISCRSSQSLVSNDGNTYLNWFQQRPGQPPRRLIYMVSKWDSGVPDRFSGSGSGTDFTLRISRVEAEDVGVYYCMQSTHWPPTFGGGTKLEIKR

- binding [2]: binds
B2: 2H8 Monoclonal antibody (antibody, V domains shown)
VH: EVQLVETGGGLVQPGGSLRLSCAASGFTFSSYGMHWVRQAPGKGLEWVSVISGSGDSTYYAESVKGRFTISRDNARNTVYLQMNSLRAEDTAVYYCASGILTGYVFDYWGKGTMVTVSS
VL: DVVMTQSPLSLPVTLGQPASISCRSSQSLVSNDGNTYLNWFQQRPGQPPRRLIYMVSKWDSGVPDRFSGSGSGTDFTLRISRVEAEDVGVYYCMQSTHWPPTFGGGTKLEIKR
notes: also called recombinant monoclonal antibody 2H8
